Values joined by “and” are separate entries in the source; they are usually repeats but may differ in a detail not shown here. Identical values can stand only once. Counter-ions that a name gives are not always drawn. ± gives the standard deviation of the averaged measurements. This is one part of the list. Most values come without repeats; read them as rough.
Tested on: RAW 264.7
Assay: HMGB1-induced TNF-alpha production relative to HMGB1-stimulated control; higher = more TNF-alpha secretion (less inhibition)
Settings: stimulus: HMGB1 5 ug/ml, 18 h
[1] = compound concentration: 1 ug/ml

Compound: NC(=O)CC[C@H](N)C(=O)O [L-Glutamine]
- HMGB1-induced TNF-alpha production (compound concentration: 3 uM): 84.6%

Compound: O=C1c2ccccc2C(=O)C1c1ccc(Br)cc1
- HMGB1-induced TNF-alpha production (compound concentration: 3 uM): 87.9%

Compound: Cc1cc2c(s1)Nc1ccccc1N=C2N1CCN(C)CC1 [Olanzapine]
- HMGB1-induced TNF-alpha production (compound concentration: 3 uM): 111 ± 20%

Compound: Cc1cc2c(s1)Nc1ccccc1N=C2N1CCN(C)CC1
- HMGB1-induced TNF-alpha production (compound concentration: 3 uM): 87.9 ± 8.4%

Compound: C[C@H]1[C@H](C)CC[C@]2(C(=O)O[C@@H]3O[C@H](CO[C@@H]4O[C@H](CO)[C@@H](O[C@@H]5O[C@H](C)[C@H](O)[C@@H](O)[C@H]5O)[C@H](O)[C@H]4O)[C@@H](O)[C@H](O)[C@H]3O)CC[C@]3(C)C(=CC[C@@H]4[C@@]5(C)C[C@@H](O)[C@H](O)[C@@](C)(CO)[C@@H]5CC[C@]43C)[C@H]12 [Asiaticoside]
- HMGB1-induced TNF-alpha production [1]: 71.9%

Compound: C=C1CC/C=C(\C)CC[C@@H]2[C@@H]1CC2(C)C [(-)-trans-Caryophyllene]
- HMGB1-induced TNF-alpha production [1]: 90%

Compound: Cc1c(O)c(=O)n(-c2ccccc2)n1C [Antipyrine, 4-hydroxy]
- HMGB1-induced TNF-alpha production (compound concentration: 3 uM): 68.8%

Compound: CC(C)OC(=O)C(C)(C)Oc1ccc(C(=O)c2ccc(Cl)cc2)cc1 [Fenofibrate]
- HMGB1-induced TNF-alpha production (compound concentration: 3 uM): 69.1 ± 8.7%

Compound: CC(C)OC(=O)C(C)(C)Oc1ccc(C(=O)c2ccc(Cl)cc2)cc1
- HMGB1-induced TNF-alpha production (compound concentration: 3 uM): 81.7%

Compound: COc1ccccc1-c1oc2ccccc2c(=O)c1O [3-Hydroxy-2'-methoxyflavone]
- HMGB1-induced TNF-alpha production [1]: 69.1%

Compound: Nc1ncnc2c1ncn2C1OC(COP(=O)(O)O)C(O)C1O (stereo not given) [Adenosine 5'-monophosphate monohydrate]
- HMGB1-induced TNF-alpha production (compound concentration: 3 uM): 66.1%

Compound: CCOC(=O)c1cnc2c(cnn2CC)c1NN=C(C)C [Etazolate hydrochloride]
- HMGB1-induced TNF-alpha production (compound concentration: 3 uM): 89.3%

Compound: CCOC(=O)c1cnc2c(cnn2CC)c1NN=C(C)C [Etazolate]
- HMGB1-induced TNF-alpha production (compound concentration: 3 uM): 82%

Compound: CN1CCCN(C(c2ccccc2)c2ccc(Cl)cc2)CC1 (stereo not given) [Homochlorcyclizine dihydrochloride]
- HMGB1-induced TNF-alpha production (compound concentration: 3 uM): 46.5%

Compound: C[C@@H]1C[C@H]2[C@@H]3CCC4=CC(=O)C=C[C@]4(C)[C@@]3(Cl)[C@@H](O)C[C@]2(C)[C@@]1(OC(=O)c1ccco1)C(=O)CCl [Mometasone furoate]
- HMGB1-induced TNF-alpha production (compound concentration: 3 uM): 39%

Compound: c1coc(CNc2ncnc3[nH]cnc23)c1 [Kinetin hydrochloride]
- HMGB1-induced TNF-alpha production [1]: 62.8%

Compound: CCOc1ccc2nc(S(N)(=O)=O)sc2c1
- HMGB1-induced TNF-alpha production (compound concentration: 3 uM): 74.9%

Compound: O=c1oc2cc(O)ccc2s1
- HMGB1-induced TNF-alpha production (compound concentration: 3 uM): 81.1%

Compound: CCCCc1ccc2[nH]c(NC(=O)OC)nc2c1 [Parbendazole]
- HMGB1-induced TNF-alpha production (compound concentration: 3 uM): 155%

Compound: COc1cc2ncnc(Nc3cccc(Cl)c3)c2cc1OC [Tyrphostin AG 1478]
- HMGB1-induced TNF-alpha production (compound concentration: 3 uM): 115%

Compound: N#C/C(=C\c1ccc(O)c(O)c1)C(=O)NCCCc1ccccc1 [Tyrphostin AG 555]
- HMGB1-induced TNF-alpha production (compound concentration: 3 uM): 144%

Compound: C/C(=C\C(=O)OCCCCCCCCC(=O)O)C[C@@H]1OC[C@H](C[C@@H]2O[C@H]2[C@@H](C)[C@H](C)O)[C@@H](O)[C@H]1O
- HMGB1-induced TNF-alpha production (compound concentration: 3 uM): 98.8 ± 0.69%

Compound: c1ccc(C2CN3CCSC3=N2)cc1 (single isomer, unassigned; (-)) [(-)-Tetramisole hydrochloride]
- HMGB1-induced TNF-alpha production (compound concentration: 3 uM): 105%

Compound: CN/C(=N\CCSCc1nc[nH]c1C)NC#N [Cimetidine]
- HMGB1-induced TNF-alpha production (compound concentration: 3 uM): 93 ± 26%

Compound: CN/C(=N\CCSCc1nc[nH]c1C)NC#N
- HMGB1-induced TNF-alpha production (compound concentration: 3 uM): 90%

Compound: CCc1cccc(CC)c1NC(=O)CN(CC(=O)O)CC(=O)O [Etifenin]
- HMGB1-induced TNF-alpha production (compound concentration: 3 uM): 60.1%

Compound: O=C(O)c1cc2cc(Cc3cccnc3)ccc2o1 [Furegrelate sodium]
- HMGB1-induced TNF-alpha production (compound concentration: 3 uM): 81.2%

Compound: Cc1cn([C@H]2CC[C@@H](CO)O2)c(=O)[nH]c1=O [2',3'-Dideoxythymidine]
- HMGB1-induced TNF-alpha production [1]: 80.9%

Compound: O=C(O)c1cc(/N=N/c2ccc(S(=O)(=O)Nc3ccccn3)cc2)ccc1O
- HMGB1-induced TNF-alpha production (compound concentration: 3 uM): 90.8 ± 15%

Compound: O=C(O)c1cc(/N=N/c2ccc(S(=O)(=O)Nc3ccccn3)cc2)ccc1O [Sulfasalazine]
- HMGB1-induced TNF-alpha production (compound concentration: 3 uM): 67.1 ± 33%

Compound: COC(=O)CCCC[C@@H]1SC[C@@H]2NC(=O)N[C@@H]21 [Biotin methyl ester]
- HMGB1-induced TNF-alpha production [1]: 68.6%

Compound: Cc1ccc(N(CC2=NCCN2)c2cccc(O)c2)cc1 [Phentolamine hydrochloride]
- HMGB1-induced TNF-alpha production (compound concentration: 3 uM): 76.6%

Compound: Cc1ccc(N(CC2=NCCN2)c2cccc(O)c2)cc1
- HMGB1-induced TNF-alpha production (compound concentration: 3 uM): 91.1%

Compound: Cc1ccc(N(CC2=NCCN2)c2cccc(O)c2)cc1 [Phentolamine mesylate]
- HMGB1-induced TNF-alpha production (compound concentration: 3 uM): 105%

Compound: Cc1ccc(N(CC2=NCCN2)c2cccc(O)c2)cc1 [Phentolamine]
- HMGB1-induced TNF-alpha production (compound concentration: 3 uM): 87.5%

Compound: NC(N)=NCCCC(N)C(=O)O (stereo not drawn) [D(-)-Arginine]
- HMGB1-induced TNF-alpha production [1]: 81.5%

Compound: CC(C)(C)c1ccc(/C=C/C(=O)Nc2ccc3c(c2)OCCO3)cc1
- HMGB1-induced TNF-alpha production (compound concentration: 3 uM): 82.7%

Compound: O=C(O)c1ccccc1-c1c2cc(I)c(=O)c(I)c-2oc2c(I)c(O)c(I)cc12
- HMGB1-induced TNF-alpha production (compound concentration: 3 uM): 55.1%

Compound: CCc1ccc(CCOc2ccc(CC3SC(=O)NC3=O)cc2)nc1 (stereo not given)
- HMGB1-induced TNF-alpha production (compound concentration: 3 uM): 110% and 97.1%

Compound: CCc1ccc(CCOc2ccc(CC3SC(=O)NC3=O)cc2)nc1 (stereo not given) [Pioglitazone]
- HMGB1-induced TNF-alpha production (compound concentration: 3 uM): 83.1 ± 14%

— the supplement of paper PMC3682954
